{
  "source": "patent US9637517",
  "about": "(dated 2017)",
  "key": {"[1]": {"test": "general procedure: Fmoc solid-phase peptide synthesis; Rink Amide-MBHA; DIC/HOBt", "conditions": "whole synthesis, scale 190 mmol, acetate"}, "[2]": {"test": "general procedure: Fmoc solid-phase peptide synthesis; Rink Amide-MBHA Resin; DIC/HOBt", "conditions": "acetate"}, "[3]": {"conditions": "whole synthesis, HPLC (230 nm), SCX-HPLC for D-His-exenatide, scale 190 mmol, run 1"}, "[4]": {"conditions": "whole synthesis, HPLC (230 nm), SCX-HPLC for D-His-exenatide, scale 190 mmol, run 2"}},
  "data": [
    {"substance": "exenatide", "values": [
      {"measurement": "crude mass", "setting": "[1]; run 1", "value": 836.97, "unit": "g"},
      {"measurement": "crude mass", "setting": "[1]; run 2", "value": 846.9, "unit": "g"},
      {"measurement": "final HPLC purity", "setting": "[2]; purification step, 230 nm", "value": "greater than 98.5%"},
      {"measurement": "final HPLC purity", "setting": "[2]; whole synthesis, HPLC (230 nm), SCX-HPLC for D-His-exenatide", "value": 94.3, "unit": "%"},
      {"measurement": "crude purity (method not given)", "setting": "[2]; [3]", "value": 55.9, "unit": "%"},
      {"measurement": "final HPLC purity", "setting": "[2]; [3]", "value": 98.9, "unit": "%"},
      {"measurement": "crude purity (method not given)", "setting": "[2]; [4]", "value": 56.7, "unit": "%"},
      {"measurement": "final HPLC purity", "setting": "[2]; [4]", "value": 99.01, "unit": "%"},
      {"measurement": "isolated mass", "setting": "[2]; whole synthesis, scale 190 mmol, run 1", "value": 173.68, "unit": "g"},
      {"measurement": "isolated mass", "setting": "[2]; whole synthesis, scale 190 mmol, run 2", "value": 176.84, "unit": "g"}
    ]}
  ]
}
